Data as given in PubChem BioAssay AID504764 (Drosophila RNAi Screening Center, 2011).
Assay: 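Knock-downs that raise or lower a Notch target reporter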 (primary screen). Cell system: Drosophila Kc167 cells. Reagent: long dsRNA against Drosophila genes. Duration: about 5 days (4 days dsRNA, then 24 h after transfection). Conditions: transfection of constitutively active membrane-tethered Notch lacking the extracellular domain, read 24 h later. Measurement: 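Firefly luciferase from an E(spl)m3 reporter with active Notch, plus control-promoter and uninduced reporter wells for normalisation; unnormalised counts, duplicate wells a and b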. Direction: induced reporter light, run 1, well a and induced reporter light, run 1, well b: higher = more light from the Notch target reporter with active Notch; control promoter light, run 1, well a and control promoter light, run 1, well b: higher = more light from the viral control promoter (cell number, transfection, viability); uninduced reporter light, run 1, well a: higher = more light from the Notch target reporter without active Notch. Hit rule: 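Hit if the duplicate-averaged log2 ratio of induced to control-promoter light gives a plate-wise z beyond ±2, or induced to uninduced beyond ±1.8; weak-control or discordant-duplicate wells dropped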. Calls: active = modifier hit (raised or lowered Notch signal); inactive = not a hit.
The deposit covers about 22,000 reagents; shown is an unselected part of those that have a named target and a result. In the full data, 403 (1.9%) were called active. 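Unnormalised raw counts per well; ratio z-scores behind the hit calls and whether each hit raises or lowers signal are not deposited.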 Reagent sequences are not shown. Not stated in the record: the amount of reagent.

| target gene | DRSC id | induced reporter light, run 1, well a | induced reporter light, run 1, well b | control promoter light, run 1, well a | control promoter light, run 1, well b | uninduced reporter light, run 1, well a | activity call |
| --- | --- | --- | --- | --- | --- | --- | --- |
| CG16896 | DRSC04284 | 1.99e5 | 2.00e5 | 2.31e5 | 2.20e5 | 14745 | inactive |
| Bin1 (Bicoid interacting protein 1) | DRSC16843 | 1.60e5 | 1.92e5 | 1.62e5 | 1.64e5 | 15745 | inactive |
| Cap-H2 (Chromosome associated protein H2) | DRSC14908 | 1.38e5 | 1.36e5 | 1.24e5 | 1.03e5 | 10960 | inactive |
| CG5953 | DRSC01546 | 54855 | 63040 | 72290 | 69495 | 4510 | inactive |
| CG5953 | DRSC02914 | 8635 | 8420 | 12635 | 10275 | 3080 | inactive |
| Jhbp7 (Juvenile hormone binding protein 7) | DRSC14408 | 1.76e5 | 1.53e5 | 2.03e5 | 1.78e5 | 13465 | inactive |
| Grip163 | DRSC10538 | 71500 | 69885 | 66345 | 67625 | 5635 | inactive |
| B-H1 (BarH1) | DRSC19334 | 1.77e5 | 1.63e5 | 1.81e5 | 2.07e5 | 20580 | inactive |
| B-H1 (BarH1) | DRSC21922 | – | – | – | – | – | inactive |
| HLH4C (Helix loop helix protein 4C) | DRSC18670 | 1.95e5 | 1.87e5 | 3.92e5 | 2.93e5 | 14310 | inactive |
| HLH4C (Helix loop helix protein 4C) | DRSC21322 | – | – | – | – | – | inactive |
| CG32808 | DRSC17689 | 70695 | 86160 | 96390 | 94930 | 6335 | inactive |
| wrd (well-rounded) | DRSC16337 | 18265 | 16200 | 15728 | 15310 | 4975 | inactive |
| wrd (well-rounded) | DRSC16344 | 1.98e5 | 1.94e5 | 1.51e5 | 1.54e5 | 11260 | inactive |
| BomBc2 (Bomanin Bicipital 2) | DRSC06502 | 1.10e5 | 93895 | 81305 | 74980 | 6130 | inactive |
| CG11379 | DRSC18629 | 1.23e5 | 1.10e5 | 2.32e5 | 2.57e5 | 8885 | inactive |
| kel (kelch) | DRSC03554 | 1.18e5 | 1.07e5 | 1.16e5 | 1.47e5 | 10730 | inactive |
| hook | DRSC03545 | 2.09e5 | 1.82e5 | 1.81e5 | 1.79e5 | 14515 | inactive |
| CG2964 | DRSC00554 | 1.41e5 | 1.20e5 | 1.37e5 | 1.22e5 | 10732 | inactive |
| CG34447 | DRSC00741 | 1.27e5 | 1.39e5 | 1.07e5 | 86105 | 9140 | inactive |
| Ir52a (Ionotropic receptor 52a) | DRSC06262 | 1.02e5 | 1.17e5 | 1.65e5 | 1.38e5 | 9305 | inactive |
| CG15745 (retired record) | DRSC19711 | 1.17e5 | 1.37e5 | 2.03e5 | 1.81e5 | 8395 | inactive |
| CG3108 | DRSC18280 | 2.15e5 | 1.91e5 | 2.15e5 | 1.96e5 | 16475 | inactive |
| AcCoAS (Acetyl Coenzyme A synthase) | DRSC11477 | 1.95e5 | 1.99e5 | 2.72e5 | 2.05e5 | 16900 | inactive |
| AcCoAS (Acetyl Coenzyme A synthase) | DRSC11603 | 1.37e5 | 1.34e5 | 1.37e5 | 1.60e5 | 10685 | inactive |
| AcCoAS (Acetyl Coenzyme A synthase) | DRSC22850 | – | – | – | – | – | inactive |
| lwr (lesswright) | DRSC00828 | 69880 | 60685 | 77690 | 90495 | 8320 | inactive |
| spz4 (spatzle 4) | DRSC02410 | 1.02e5 | 1.27e5 | 70560 | 1.04e5 | 15530 | inactive |
| Hou (Houki) | DRSC20001 | 1.01e5 | 84345 | 82445 | 54415 | 9945 | inactive |
| CG13760 | DRSC18617 | 99485 | 1.02e5 | 1.73e5 | 1.58e5 | 8320 | inactive |
| CG32425 | DRSC11739 | 20885 | 15742 | 8640 | 11875 | 4380 | inactive |
| CG32425 | DRSC11764 | 1.03e5 | 1.13e5 | 65785 | 71775 | 7740 | inactive |
| Mad1 (Mitotic arrest-deficient 1) | DRSC07561 | 1.26e5 | 93045 | 98255 | 77335 | 9460 | inactive |
| Ntan1 (N-terminal amidohydrolase 1) | DRSC07546 | 1.25e5 | 83490 | 87365 | 69015 | 9082 | inactive |
| RpS14b (Ribosomal protein S14b) | DRSC18711 | 5500 | 4345 | 9290 | 8620 | 288 | inactive |
| CG14722 | DRSC14944 | 99930 | 1.05e5 | 68105 | 70460 | 8640 | inactive |
| fng (fringe) | DRSC11455 | 2.47e5 | 2.60e5 | 3.05e5 | 3.10e5 | 23065 | inactive |
| fng (fringe) | DRSC11887 | 1.23e5 | 1.29e5 | 80015 | 86790 | 9705 | inactive |
| Sod1 (Superoxide dismutase 1) | DRSC11286 | 1.29e5 | 1.18e5 | 1.60e5 | 1.33e5 | 8428 | inactive |
| CstF64 (Cleavage stimulation factor 64 kD subunit) | DRSC16616 | 1.32e5 | 1.61e5 | 1.40e5 | 1.53e5 | 10085 | inactive |
| Tango14 (Transport and Golgi organization 14) | DRSC00667 | 91680 | 78180 | 81040 | 58875 | 5640 | inactive |
| MsrA (Methionine sulfoxide reductase A) | DRSC11159 | 2.40e5 | 2.07e5 | 2.86e5 | 3.01e5 | 12125 | inactive |
| pcx (pecanex) | DRSC18186 | 1.36e5 | 93015 | 2.93e5 | 2.86e5 | 8745 | active |
| pcx (pecanex) | DRSC18187 | 1.33e5 | 1.78e5 | 2.18e5 | 1.92e5 | 8305 | inactive |
| pcx (pecanex) | DRSC18188 | 1.10e5 | 1.19e5 | 1.95e5 | 1.35e5 | 7040 | inactive |
| pcx (pecanex) | DRSC18189 | 1.39e5 | 1.23e5 | 1.90e5 | 1.88e5 | 8945 | inactive |
| pcx (pecanex) | DRSC18190 | 1.06e5 | 1.16e5 | 1.61e5 | 2.20e5 | 6430 | inactive |
| pcx (pecanex) | DRSC18816 | 1.62e5 | 2.12e5 | 2.04e5 | 2.19e5 | 11960 | inactive |
| lili (lilipod) | DRSC14143 | 1.85e5 | 1.79e5 | 1.98e5 | 2.05e5 | 13020 | inactive |
| Fpgs2 (Folylpolyglutamate synthase 2) | DRSC00600 | 1.73e5 | 1.47e5 | 2.61e5 | 1.82e5 | 11832 | inactive |
| Rad17 | DRSC16811 | 2.23e5 | 2.07e5 | 2.92e5 | 2.81e5 | 17595 | active |
| CG8006 | DRSC10949 | 96640 | 1.06e5 | 82110 | 23045 | 10370 | inactive |
| CG31848 | DRSC01309 | 1.48e5 | 1.20e5 | 1.21e5 | 1.10e5 | 8775 | inactive |
| natalisin | DRSC14966 | 45175 | 48770 | 31565 | 34750 | 8490 | inactive |
| natalisin | DRSC14967 | 2.77e5 | 3.04e5 | 2.99e5 | 3.30e5 | 27920 | inactive |
| RpL11 (Ribosomal protein L11) | DRSC07537 | 6105 | 7045 | 12278 | 11525 | 680 | inactive |
| Klp10A (Kinesin-like protein at 10A) | DRSC19601 | 1.76e5 | 1.49e5 | 2.06e5 | 1.75e5 | 9735 | inactive |
| Cyp12e1 (Cytochrome P450 12e1) | DRSC16622 | 64175 | 71130 | 66805 | 46420 | 3865 | inactive |
| CG18284 | DRSC02661 | 1.92e5 | 1.91e5 | 1.86e5 | 1.97e5 | 12015 | inactive |
| CG18284 | DRSC20756 | 2.06e5 | 1.61e5 | 3.42e5 | 2.95e5 | 15985 | inactive |
| CG30416 | DRSC04565 | 1.84e5 | 1.48e5 | 1.30e5 | 1.43e5 | 10388 | inactive |
| CG3817 | DRSC15515 | 57650 | 56030 | 78225 | 71980 | 4540 | inactive |
| CG17572 | DRSC02629 | 31610 | 32990 | 35890 | 50520 | 2000 | inactive |
| Epac (Exchange protein directly activated by cAMP) | DRSC04969 | 1.57e5 | 1.73e5 | 2.58e5 | 2.76e5 | 14310 | inactive |
| Epac (Exchange protein directly activated by cAMP) | DRSC04996 | 72860 | 81215 | 49975 | 54110 | 4415 | inactive |
| Epac (Exchange protein directly activated by cAMP) | DRSC04997 | 1.92e5 | 1.99e5 | 1.74e5 | 1.79e5 | 12295 | inactive |
